Data reported in the supplement of paper PMC12819154, “High-throughput peptide-centric local stability assay extends protein–ligand identification to membrane proteins, tissues and bacteria” (Nature Structural & Molecular Biology, 2025).
The other results are listed elsewhere or left out. Small differences around the control level are noise.

Protein sequences, listed by entry. Tags and fused reporters are not part of them. Lines headed by an entry give the natural chain unless they say otherwise; changes in a name come on top.
UniProt Q8BH52: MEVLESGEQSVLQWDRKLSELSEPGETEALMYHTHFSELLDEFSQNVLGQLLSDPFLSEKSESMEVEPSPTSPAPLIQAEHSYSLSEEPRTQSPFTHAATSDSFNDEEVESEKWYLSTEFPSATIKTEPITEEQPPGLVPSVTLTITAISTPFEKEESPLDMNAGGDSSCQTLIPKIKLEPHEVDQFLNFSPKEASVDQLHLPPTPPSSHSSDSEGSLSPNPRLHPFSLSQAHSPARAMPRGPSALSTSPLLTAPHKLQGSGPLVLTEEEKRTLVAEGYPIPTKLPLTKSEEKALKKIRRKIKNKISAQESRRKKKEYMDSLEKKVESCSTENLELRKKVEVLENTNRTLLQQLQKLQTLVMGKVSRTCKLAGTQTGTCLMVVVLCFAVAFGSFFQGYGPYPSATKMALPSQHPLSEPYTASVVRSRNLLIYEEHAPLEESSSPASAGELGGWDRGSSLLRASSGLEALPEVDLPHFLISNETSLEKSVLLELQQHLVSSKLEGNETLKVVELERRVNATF
UniProt Q8BFT2: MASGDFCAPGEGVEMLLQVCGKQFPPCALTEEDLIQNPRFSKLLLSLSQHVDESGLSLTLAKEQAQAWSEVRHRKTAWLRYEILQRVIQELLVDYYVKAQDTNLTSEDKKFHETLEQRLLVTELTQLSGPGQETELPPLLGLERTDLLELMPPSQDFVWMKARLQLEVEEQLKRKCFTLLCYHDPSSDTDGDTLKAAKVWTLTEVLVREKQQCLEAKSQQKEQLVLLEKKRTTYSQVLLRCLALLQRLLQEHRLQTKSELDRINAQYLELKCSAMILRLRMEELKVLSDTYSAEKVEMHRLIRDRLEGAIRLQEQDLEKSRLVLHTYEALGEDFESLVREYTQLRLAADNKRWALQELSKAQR
UniProt Q811C2: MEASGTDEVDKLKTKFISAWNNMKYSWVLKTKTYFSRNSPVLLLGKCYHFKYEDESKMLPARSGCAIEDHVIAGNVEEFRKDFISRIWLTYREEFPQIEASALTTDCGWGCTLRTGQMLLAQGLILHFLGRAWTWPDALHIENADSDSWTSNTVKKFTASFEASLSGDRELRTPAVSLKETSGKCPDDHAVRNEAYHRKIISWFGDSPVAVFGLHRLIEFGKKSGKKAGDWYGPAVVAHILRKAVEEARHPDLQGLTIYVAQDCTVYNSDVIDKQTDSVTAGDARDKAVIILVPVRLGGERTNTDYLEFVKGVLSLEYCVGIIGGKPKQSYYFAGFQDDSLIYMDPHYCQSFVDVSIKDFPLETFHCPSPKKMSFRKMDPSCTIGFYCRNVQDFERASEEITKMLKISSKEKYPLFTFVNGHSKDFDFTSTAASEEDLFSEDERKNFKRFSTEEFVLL
UniProt Q8BG18: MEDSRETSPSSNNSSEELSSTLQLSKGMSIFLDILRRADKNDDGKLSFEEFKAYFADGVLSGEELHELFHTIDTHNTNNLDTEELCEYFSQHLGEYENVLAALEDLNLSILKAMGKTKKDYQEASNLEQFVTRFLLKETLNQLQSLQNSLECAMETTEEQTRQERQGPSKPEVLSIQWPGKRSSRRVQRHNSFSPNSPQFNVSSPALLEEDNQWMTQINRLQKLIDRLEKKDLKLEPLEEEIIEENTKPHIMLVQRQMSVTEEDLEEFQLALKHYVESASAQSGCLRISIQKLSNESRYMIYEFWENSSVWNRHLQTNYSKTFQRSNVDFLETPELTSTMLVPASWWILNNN
UniProt Q80Y17: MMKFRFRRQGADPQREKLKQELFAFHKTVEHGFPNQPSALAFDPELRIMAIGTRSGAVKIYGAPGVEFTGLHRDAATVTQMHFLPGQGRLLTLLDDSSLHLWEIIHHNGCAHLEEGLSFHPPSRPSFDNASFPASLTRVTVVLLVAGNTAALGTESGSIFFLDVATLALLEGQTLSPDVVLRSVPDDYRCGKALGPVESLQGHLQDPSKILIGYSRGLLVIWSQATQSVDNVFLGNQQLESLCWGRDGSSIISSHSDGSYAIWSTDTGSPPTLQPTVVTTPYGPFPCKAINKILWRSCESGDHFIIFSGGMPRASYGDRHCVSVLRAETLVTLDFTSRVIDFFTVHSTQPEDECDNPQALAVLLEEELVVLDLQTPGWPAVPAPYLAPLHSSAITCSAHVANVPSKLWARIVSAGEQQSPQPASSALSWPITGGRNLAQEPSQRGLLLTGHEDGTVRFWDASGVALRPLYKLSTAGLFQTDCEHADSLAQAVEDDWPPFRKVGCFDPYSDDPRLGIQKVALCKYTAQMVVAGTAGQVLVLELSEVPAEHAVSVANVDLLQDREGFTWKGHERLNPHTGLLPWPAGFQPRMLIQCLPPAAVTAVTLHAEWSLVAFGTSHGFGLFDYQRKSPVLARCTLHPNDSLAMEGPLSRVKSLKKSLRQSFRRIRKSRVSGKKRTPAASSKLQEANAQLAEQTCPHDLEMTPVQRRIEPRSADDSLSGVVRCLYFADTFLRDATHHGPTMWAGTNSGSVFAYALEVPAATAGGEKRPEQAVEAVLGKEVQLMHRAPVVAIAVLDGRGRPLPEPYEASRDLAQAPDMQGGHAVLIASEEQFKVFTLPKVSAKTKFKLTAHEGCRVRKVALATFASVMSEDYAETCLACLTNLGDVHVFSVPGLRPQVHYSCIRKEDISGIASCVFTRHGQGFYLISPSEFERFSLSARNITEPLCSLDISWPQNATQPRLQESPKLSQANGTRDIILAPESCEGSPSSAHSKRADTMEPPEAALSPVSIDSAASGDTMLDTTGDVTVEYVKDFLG
UniProt Q8BGG6: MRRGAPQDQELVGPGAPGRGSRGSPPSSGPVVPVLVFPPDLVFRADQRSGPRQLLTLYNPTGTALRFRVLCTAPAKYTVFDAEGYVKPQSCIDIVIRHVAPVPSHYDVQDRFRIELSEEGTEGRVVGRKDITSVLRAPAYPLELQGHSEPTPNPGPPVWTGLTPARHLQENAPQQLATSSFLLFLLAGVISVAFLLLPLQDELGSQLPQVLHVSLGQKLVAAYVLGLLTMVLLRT
UniProt Q80X82: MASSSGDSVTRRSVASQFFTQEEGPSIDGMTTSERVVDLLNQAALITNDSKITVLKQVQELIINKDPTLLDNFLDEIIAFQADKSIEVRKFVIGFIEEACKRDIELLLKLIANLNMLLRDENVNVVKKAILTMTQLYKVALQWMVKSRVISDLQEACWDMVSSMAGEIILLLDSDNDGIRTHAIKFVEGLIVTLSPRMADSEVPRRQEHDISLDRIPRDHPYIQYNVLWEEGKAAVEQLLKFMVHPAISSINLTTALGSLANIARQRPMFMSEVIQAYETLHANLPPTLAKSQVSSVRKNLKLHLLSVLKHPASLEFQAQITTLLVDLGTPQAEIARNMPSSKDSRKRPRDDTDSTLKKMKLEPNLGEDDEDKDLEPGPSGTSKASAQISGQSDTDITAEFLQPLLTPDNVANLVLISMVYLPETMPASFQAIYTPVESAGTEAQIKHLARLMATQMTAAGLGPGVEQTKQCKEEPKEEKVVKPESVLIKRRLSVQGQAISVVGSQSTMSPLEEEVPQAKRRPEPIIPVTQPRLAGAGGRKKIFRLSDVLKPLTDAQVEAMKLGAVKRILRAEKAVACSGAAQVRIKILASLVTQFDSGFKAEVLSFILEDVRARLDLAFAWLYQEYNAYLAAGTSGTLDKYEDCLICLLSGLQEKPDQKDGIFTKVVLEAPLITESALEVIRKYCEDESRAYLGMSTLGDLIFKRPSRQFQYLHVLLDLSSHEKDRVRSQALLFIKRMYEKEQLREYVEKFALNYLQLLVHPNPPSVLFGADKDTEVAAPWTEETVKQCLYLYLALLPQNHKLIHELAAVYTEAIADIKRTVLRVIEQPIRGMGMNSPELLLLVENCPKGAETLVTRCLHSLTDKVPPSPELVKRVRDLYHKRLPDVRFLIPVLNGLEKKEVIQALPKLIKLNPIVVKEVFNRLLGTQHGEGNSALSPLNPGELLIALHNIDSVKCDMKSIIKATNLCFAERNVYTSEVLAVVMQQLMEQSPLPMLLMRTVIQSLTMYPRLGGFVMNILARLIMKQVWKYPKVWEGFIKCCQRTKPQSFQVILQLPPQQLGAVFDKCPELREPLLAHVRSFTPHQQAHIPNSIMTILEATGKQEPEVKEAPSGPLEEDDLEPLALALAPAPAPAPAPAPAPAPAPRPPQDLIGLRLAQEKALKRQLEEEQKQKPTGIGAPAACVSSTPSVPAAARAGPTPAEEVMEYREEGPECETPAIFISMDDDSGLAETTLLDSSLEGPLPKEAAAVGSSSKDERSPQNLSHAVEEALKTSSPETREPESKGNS
UniProt Q8BG05: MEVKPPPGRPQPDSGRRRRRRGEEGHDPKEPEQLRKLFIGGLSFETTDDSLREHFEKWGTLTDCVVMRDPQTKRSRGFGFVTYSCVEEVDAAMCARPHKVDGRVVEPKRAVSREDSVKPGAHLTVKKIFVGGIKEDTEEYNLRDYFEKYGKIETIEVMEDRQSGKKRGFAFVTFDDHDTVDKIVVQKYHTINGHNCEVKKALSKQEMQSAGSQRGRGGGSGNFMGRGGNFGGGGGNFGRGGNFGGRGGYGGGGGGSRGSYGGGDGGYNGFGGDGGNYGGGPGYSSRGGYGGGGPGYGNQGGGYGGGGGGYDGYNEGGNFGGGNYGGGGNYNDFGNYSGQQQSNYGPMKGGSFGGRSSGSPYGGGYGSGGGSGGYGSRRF
UniProt Q8BHR2: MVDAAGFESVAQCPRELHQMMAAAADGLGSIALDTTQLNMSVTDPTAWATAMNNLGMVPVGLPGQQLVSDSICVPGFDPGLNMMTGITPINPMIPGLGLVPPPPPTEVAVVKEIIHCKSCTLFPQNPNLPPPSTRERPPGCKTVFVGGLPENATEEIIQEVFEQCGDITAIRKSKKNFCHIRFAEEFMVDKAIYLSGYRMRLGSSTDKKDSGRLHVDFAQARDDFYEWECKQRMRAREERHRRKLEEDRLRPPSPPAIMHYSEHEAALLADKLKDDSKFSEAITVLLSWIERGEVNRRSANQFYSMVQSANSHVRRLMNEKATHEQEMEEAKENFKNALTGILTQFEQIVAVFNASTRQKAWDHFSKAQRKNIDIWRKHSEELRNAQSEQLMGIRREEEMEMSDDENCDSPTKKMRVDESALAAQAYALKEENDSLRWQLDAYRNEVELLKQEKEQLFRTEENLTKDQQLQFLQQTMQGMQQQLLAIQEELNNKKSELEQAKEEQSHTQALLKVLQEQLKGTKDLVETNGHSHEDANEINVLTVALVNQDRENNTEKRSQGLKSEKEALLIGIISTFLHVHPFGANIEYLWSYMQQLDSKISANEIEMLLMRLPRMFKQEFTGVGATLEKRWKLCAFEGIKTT
UniProt Q8BG67: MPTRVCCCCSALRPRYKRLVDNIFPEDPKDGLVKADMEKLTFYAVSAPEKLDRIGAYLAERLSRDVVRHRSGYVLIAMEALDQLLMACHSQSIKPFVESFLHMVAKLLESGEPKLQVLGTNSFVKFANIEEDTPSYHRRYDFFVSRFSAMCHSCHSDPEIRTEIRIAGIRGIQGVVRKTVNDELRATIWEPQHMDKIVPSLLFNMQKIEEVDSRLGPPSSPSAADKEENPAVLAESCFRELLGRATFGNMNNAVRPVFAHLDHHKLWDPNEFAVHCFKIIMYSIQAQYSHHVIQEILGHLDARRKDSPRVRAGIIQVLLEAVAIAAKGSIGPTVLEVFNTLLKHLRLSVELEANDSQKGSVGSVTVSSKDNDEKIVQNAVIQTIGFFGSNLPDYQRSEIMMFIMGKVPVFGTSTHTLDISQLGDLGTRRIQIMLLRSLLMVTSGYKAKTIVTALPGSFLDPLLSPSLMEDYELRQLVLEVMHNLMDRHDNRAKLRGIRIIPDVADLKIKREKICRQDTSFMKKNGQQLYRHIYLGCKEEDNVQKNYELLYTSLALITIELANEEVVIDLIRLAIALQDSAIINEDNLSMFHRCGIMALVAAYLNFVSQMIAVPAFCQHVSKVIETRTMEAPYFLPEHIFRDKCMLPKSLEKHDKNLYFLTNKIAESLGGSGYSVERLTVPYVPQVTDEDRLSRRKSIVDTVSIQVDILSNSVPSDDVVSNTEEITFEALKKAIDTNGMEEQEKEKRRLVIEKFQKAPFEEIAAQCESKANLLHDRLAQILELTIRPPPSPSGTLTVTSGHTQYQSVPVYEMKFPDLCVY
UniProt Q8BGN5: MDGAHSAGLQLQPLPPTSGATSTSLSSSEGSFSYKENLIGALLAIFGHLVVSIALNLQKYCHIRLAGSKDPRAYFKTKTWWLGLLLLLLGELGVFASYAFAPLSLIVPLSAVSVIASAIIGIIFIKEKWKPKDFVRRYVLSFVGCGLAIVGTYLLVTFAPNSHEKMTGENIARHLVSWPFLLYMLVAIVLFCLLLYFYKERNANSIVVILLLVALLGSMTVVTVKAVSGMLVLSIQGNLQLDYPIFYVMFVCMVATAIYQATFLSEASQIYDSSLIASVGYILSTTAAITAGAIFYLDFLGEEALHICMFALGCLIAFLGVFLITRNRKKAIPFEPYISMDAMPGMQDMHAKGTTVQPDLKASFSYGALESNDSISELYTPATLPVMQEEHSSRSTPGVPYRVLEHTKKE

Compound: CN[C@@H]1C[C@H]2O[C@@](C)([C@@H]1OC)n1c3ccccc3c3c4c(c5c6ccccc6n2c5c31)C(=O)NC4 [staurosporine]
Assay: log2 fold change of tryptic peptide abundance, ligand vs vehicle (limited proteolysis) (log2 ratio); higher = more trypsin-susceptible (destabilized)
Conditions: ligand concentration: 20 uM; sample: mouse liver crude lysate; replicate design: treated separately

| Target | log2 fold change |
| --- | --- |
| UniProt Q8BGL3 (peptide sequence: AKVIYLIR, peptide start residue: 114) | 0.224 |
| UniProt Q8BH52 (peptide sequence: LQGSGPLVLTEEEKR, peptide start residue: 258) | 0.0914 |
| UniProt Q8BGR6 (peptide sequence: AVPFQNAVLNVK, peptide start residue: 70) | -0.15 |
| UniProt Q8BFT2 (peptide sequence: FHETLEQR, peptide start residue: 111) | 0.231 |
| UniProt Q8BGE6 (peptide sequence: KYSIFTEKDEILSDVASR, peptide start residue: 32) | -0.356 |
| UniProt Q8BH35 (peptide sequence: SVLEVAHYK, peptide start residue: 296) | 0.142 |
| UniProt Q811C2 (peptide sequence: FISAWNNMK, peptide start residue: 16) | -0.0711 |
| UniProt Q8BHG3 (peptide sequence: GAHQPDNTAFTQQR, peptide start residue: 9) | -0.506 |
| UniProt Q811J3 (peptide sequence: GQTTCRGSCDSGELSR, peptide start residue: 171) | 0.18 |
| UniProt Q8BH16 (peptide sequence: TFAQNCR, peptide start residue: 111) | -0.121 |
| UniProt Q80XJ3 (peptide sequence: ASETSAFSKPILSHQR, peptide start residue: 2200) | -0.0306 |
| UniProt Q8BG18 (peptide sequence: HYVESASAQSGCLR, peptide start residue: 274) | 0.0768 |
| UniProt Q8BFR5 (peptide sequence: FKKYEEIDNAPEER, peptide start residue: 89) | -0.108 |
| UniProt Q8BH47 (peptide sequence: EFITTYNMMK, peptide start residue: 93) | 0.145 |
| UniProt Q80VP0 (peptide sequence: GHETSGNTDHSTENACLTEGKEK, peptide start residue: 448) | 0.666 |
| UniProt Q80Y17 (peptide sequence: RPEQAVEAVLGK, peptide start residue: 768) | 0.774 |

| Target | log2 fold change |
| --- | --- |
| UniProt Q8BGG6 (peptide sequence: HVAPVPSHYDVQDR, peptide start residue: 98) | 0.233 |
| UniProt Q80X82 (peptide sequence: RQEHDISLDRIPR, peptide start residue: 206) | 0.245 |
| UniProt Q8BHC7 (peptide sequence: PVTYDATYR, peptide start residue: 251) | 0.512 |
| UniProt Q80XJ2 (peptide sequence: LLALQLQK, peptide start residue: 447) | -0.239 |
| UniProt Q8BG05 (peptide sequence: KIFVGGIKEDTEEYNLR, peptide start residue: 127) | 0.179 |
| UniProt Q80YR5 (peptide sequence: DRGHYQEHVIDRR, peptide start residue: 814) | 0.456 |
| UniProt Q8BHR2 (peptide sequence: MRLGSSTDKK, peptide start residue: 200) | -0.136 |
| UniProt Q8BH04 (peptide sequence: IFHVNWFR, peptide start residue: 511) | 0.0974 |
| UniProt Q8BH43 (peptide sequence: GSVLAGPKR, peptide start residue: 283) | -0.19 |
| UniProt Q8BGC4 (peptide sequence: GFFLNHYFSK, peptide start residue: 302) | 0.176 |
| UniProt Q8BG67 (peptide sequence: KAIDTNGMEEQEKEK, peptide start residue: 731) | 1.24 |
| UniProt Q80XH1 (peptide sequence: LQQMSER, peptide start residue: 56) | -0.205 |
| UniProt Q8BGN5 (peptide sequence: GTTVQPDLK, peptide start residue: 353) | -0.0784 |
| UniProt Q80WQ6 (peptide sequence: SLHHCSVHYGR, peptide start residue: 113) | 0.362 |
| UniProt Q810B6 (peptide sequence: GRTPLHLSIMAR, peptide start residue: 367) | -0.468 |

Look-ups from the entries so far.
For log2 fold change, UniProt Q8BG67 (peptide sequence: KAIDTNGMEEQEKEK, peptide start residue: 731) reads 1.24
For log2 fold change, UniProt Q8BHC7 (peptide sequence: PVTYDATYR, peptide start residue: 251) reads 0.512
